From PubChem BioAssay AID1347131 (National Center for Advancing Translational Sciences (NCATS), 2019)
The whole screen tested about 410,000 compounds, of which about 2,000 (0.49%) were called active. Inconclusive results, whose numbers are uncertain, are shown with a selection of clear calls. Calls follow the shape of the full dose curve; tested in HEK293 reporter line. Potencies beside an inconclusive call are fits to weak or partial responses and may not hold up.

Test: qHTS Assay for Foot and Mouth Disease Virus Antivirals: Primary Screen against the MLPCN compound library; also: nearly all actives have a fitted effect of over 55% in size
Details: FMDV antiviral cell-based qHTS; activity, negative = inhibition: at 57.9 µM (top of the series)
Potency is read from the fitted curve at half-maximal effect.

Row | SMILES | activity, negative = inhibition | Potency
1 | O=C1c2ccccc2-c2onc3ccc(N4CCCC4)c1c23 | inconclusive: -48.1% [inhibitor] | –
3 | CCN1CCN(Cc2ccc(NC(=O)c3cc(NC(=O)c4cc5cccc(OC)c5o4)cc(OC)c3)cc2C(F)(F)F)CC1 | – | inconclusive: 39.8 µM [inhibitor, partial curve, poor fit]
4 | Cc1cccc(NC(=O)c2ccc(S(=O)(=O)N3CCC(C)CC3)cc2)n1 | – | inconclusive: 31.6 µM [inhibitor, partial curve, poor fit]
5 | Cc1cc(=O)oc2cc(OCC(=O)N3CCN(C(=O)C4COc5ccccc5O4)CC3)c(Cl)cc12 (stereo not drawn) | – | inconclusive: 8.91 µM [inhibitor, partial curve]
6 | CC1(C)CC(NC(=O)c2coc(=O)c(Br)c2)CC(C)(C)N1 | – | inconclusive: 31.6 µM [inhibitor, single point]
7 | COC(=O)c1[nH]c2cc(C)ccc2c1NC(=O)CN1CCc2cc(OC)c(OC)cc2C1 | – | inconclusive: 22.4 µM [inhibitor, partial curve, poor fit]
8 | CN(C)c1nc(SCc2ccccc2Cl)nc2c1CCCC2 | – | inconclusive: 35.5 µM [inhibitor, single point]
9 | O=C(Nc1ccccc1)NN(C(=O)CCl)c1ccccc1 | – | inconclusive: 20 µM [inhibitor, partial curve, poor fit]
10 | Cc1ccc(-c2cc(-c3ccc(C)cc3)[n+](-c3ccccc3)c(-c3ccc(C)cc3)c2)cc1 | – | inconclusive: 7.08 µM [inhibitor, partial curve, poor fit]
11 | Cc1nc(-c2ccc(NC(=O)c3ccco3)cc2)cs1 | – | inconclusive: 11.2 µM [inhibitor, partial curve, poor fit]
12 | CCOc1ccc(C(C)NC(=O)c2ccccc2OCc2c(C)noc2C)cc1OCC (stereo not drawn) | – | inconclusive: 1.26 µM [inhibitor, full curve]
13 | Fc1ccccc1Nc1nc2ccccc2o1 | – | inconclusive: 22.4 µM [inhibitor, single point]
14 | CCOC(=O)N1CCC(Nc2c(NCCN3CCN(c4ccccc4F)CC3)c(=O)c2=O)CC1 | – | inconclusive: 25.1 µM [inhibitor, single point]
15 | Cc1csc(NC(=O)c2nc(-c3ccccc3)n(-c3ccccc3)n2)n1 | – | inconclusive: 14.1 µM [inhibitor, partial curve]
16 | COc1cccc(COC(=O)c2nn(-c3ccccc3)nc2N)c1 | – | inconclusive: 25.1 µM [inhibitor, partial curve, poor fit]
17 | CCc1ccc(S(=O)(=O)/N=C2\C=C(Nc3ccc(O)cc3)C(=O)c3ccccc32)cc1 | – | inconclusive: 35.5 µM [inhibitor, partial curve, poor fit]
18 | CSCCC(c1nnnn1C1CCCC1)N1CCC2(CC1)C(=O)NCN2c1ccccc1 (stereo not drawn) | – | inconclusive: 2 µM [inhibitor, full curve]
19 | CC(=O)Nc1ccc(S(=O)(=O)c2ccc([N+](=O)[O-])cc2)cc1 | – | inactive
20 | O=C(Nc1ncccc1O)c1ccc(OCC2CCCO2)cc1 (stereo not drawn) | – | inconclusive: 14.1 µM [inhibitor, single point]

Compounds 3 through 7, quoted:
Row | SMILES | activity, negative = inhibition | Potency
3 | CCN1CCN(Cc2ccc(NC(=O)c3cc(NC(=O)c4cc5cccc(OC)c5o4)cc(OC)c3)cc2C(F)(F)F)CC1 | – | inconclusive: 39.8 µM [inhibitor, partial curve, poor fit]
4 | Cc1cccc(NC(=O)c2ccc(S(=O)(=O)N3CCC(C)CC3)cc2)n1 | – | inconclusive: 31.6 µM [inhibitor, partial curve, poor fit]
5 | Cc1cc(=O)oc2cc(OCC(=O)N3CCN(C(=O)C4COc5ccccc5O4)CC3)c(Cl)cc12 (stereo not drawn) | – | inconclusive: 8.91 µM [inhibitor, partial curve]
6 | CC1(C)CC(NC(=O)c2coc(=O)c(Br)c2)CC(C)(C)N1 | – | inconclusive: 31.6 µM [inhibitor, single point]
7 | COC(=O)c1[nH]c2cc(C)ccc2c1NC(=O)CN1CCc2cc(OC)c(OC)cc2C1 | – | inconclusive: 22.4 µM [inhibitor, partial curve, poor fit]

Following part.

Row | SMILES | activity, negative = inhibition | Potency
21 | COc1ccc2c(c1)c(CC(=O)NCc1cc([N+](=O)[O-])ccc1O)c(C)n2C(=O)c1ccc(Cl)cc1 | – | inconclusive: 39.8 µM [inhibitor, partial curve, poor fit]
22 | O=C(CN1CCN(S(=O)(=O)N2CCOCC2)CC1)Nc1cc(Cl)ccc1Cl | – | inconclusive: 28.2 µM [inhibitor, partial curve, poor fit]
23 | Cc1ccccc1NS(=O)(=O)c1cc(C(=O)Nc2cccc([N+](=O)[O-])c2)ccc1C | – | inconclusive: 39.8 µM [inhibitor, single point]
24 | Cc1ccc(NC(=O)C2CCN(S(=O)(=O)c3c(C)noc3/C=C/c3ccco3)CC2)nc1 | – | inconclusive: 35.5 µM [inhibitor, partial curve, poor fit]
25 | CCCCn1nnnc1C1(C)CCC(=O)N1C1CC1 (stereo not drawn) | – | inconclusive: 5.62 µM [inhibitor, partial curve]
26 | FC(F)(F)c1nnc(-c2ccccc2)nc1Oc1ccc(Cl)cc1Cl | – | inactive
27 | COc1cc(/C=C2\COC/C(=C\c3cc(OC)c(OC)c(OC)c3)C2=O)cc(OC)c1OC | – | inconclusive: 3.55 µM [inhibitor, full curve, poor fit]
28 | COC(=O)C(NNc1ccccc1)(NC(=O)c1ccc(F)cc1)C(F)(F)F (stereo not drawn) | – | inconclusive: 25.1 µM [inhibitor, single point]
29 | O=P(c1ccccc1)(c1ccccc1)c1nc(-c2ccccc2)oc1NCc1ccccc1 | – | inactive
30 | Cc1oc(-c2ccc(Cl)cc2)nc1CN1CCCC(C(=O)NCc2cccnc2)C1 (stereo not drawn) | – | inactive
31 | CC(=O)N1c2ccc(S(=O)(=O)NCC3CCC(C(=O)Nc4cccc(F)c4)CC3)cc2CC1C (stereo not drawn) | – | inconclusive: 20 µM [inhibitor, partial curve, poor fit]
32 | O=C(Nc1ccc2c(c1)OCCO2)c1ccccn1 | – | inconclusive: 17.8 µM [inhibitor, single point]
33 | O=S1(=O)C=C(Sc2nc3cc(Cl)ccc3o2)c2ccccc21 | – | inconclusive: 28.2 µM [inhibitor, partial curve, poor fit]
34 | CN(C)c1nc(-c2cccnc2)nc2ccccc12 | – | inconclusive: 15.8 µM [inhibitor, partial curve, poor fit]
35 | COc1ccc(CCN2CCCC(CN(C)C(=O)c3ccoc3)C2)cc1 (stereo not drawn) | – | inconclusive: 3.16 µM [inhibitor, partial curve, poor fit]
36 | FC(F)Oc1ccc(-c2csc(=Nc3cccnc3)n2CC2CCCO2)cc1 (stereo not drawn) | – | inconclusive: 8.91 µM [inhibitor, full curve, poor fit]
37 | COC(=O)c1[nH]c2ccc(C)cc2c1NC(=O)CN1CCN(c2ccc(F)cc2)CC1 | – | inconclusive: 25.1 µM [inhibitor, partial curve, poor fit]
38 | C=CCN(c1ccccc1)S(=O)(=O)c1cccc(C(=O)Nc2nc3ccccc3[nH]2)c1 | – | inconclusive: 22.4 µM [inhibitor, partial curve, poor fit]
39 | COCCNC(=O)[C@H](C)[C@H]1C[C@]1(C)[C@H](NC(=O)OCc1ccccc1)c1ccccc1 | – | inconclusive: 17.8 µM [inhibitor, partial curve]
40 | COc1ccc(C2=Nc3ccc(C)cc3C(c3ccccc3)N2CC(=O)NN)cc1 (stereo not drawn) | – | inconclusive: 11.2 µM [inhibitor, partial curve]

Row | SMILES | activity, negative = inhibition | Potency
41 | Cc1cc(C)c(S(=O)(=O)ON2C(=O)c3ccccc3C2=O)cc1C | – | inconclusive: 25.1 µM [inhibitor, single point]
42 | Cc1cc(Cl)ccc1OC(C)c1nnc(N)s1 (stereo not drawn) | – | inconclusive: 25.1 µM [inhibitor, single point]
43 | Cc1cccc(N2CCN(C(=O)c3ccc(N4CCCC4=O)cc3)CC2C)c1 (stereo not drawn) | – | inconclusive: 31.6 µM [inhibitor, partial curve, poor fit]
44 | CCOc1ccc(OCc2ccc(C(=O)N3N=C(C(F)F)CC3(O)C(F)F)o2)cc1 (stereo not drawn) | – | inconclusive: 35.5 µM [inhibitor, single point]
45 | Cc1c(Cl)cccc1NC(=S)N(Cc1cccs1)C1CCCC1 | – | inconclusive: 12.6 µM [inhibitor, partial curve, poor fit]
46 | O=C1CCC2S/C(=C/Nc3ccc(C(F)(F)F)cc3)C(=O)N12 (stereo not drawn) | – | inconclusive: 8.91 µM [inhibitor, partial curve, poor fit]
47 | CCc1sc(C(=O)Nc2cccc(-n3cnnn3)c2)cc1C | – | inconclusive: 2.51 µM [inhibitor, full curve]
48 | COc1ccc(Cl)cc1/C=C1/C(=O)ON=C1C | – | inconclusive: 31.6 µM [inhibitor, partial curve, poor fit]
49 | CCc1ccc(C2=CC(c3cccc(OC)c3OC)n3c(nc4ccccc43)N2)cc1 (stereo not drawn) | – | inconclusive: 17.8 µM [inhibitor, single point]
50 | COc1ccc(/C=C2\SC(=O)N(CCCC(=O)Nc3cc(Cl)ccc3C(=O)O)C2=O)cc1 | – | inconclusive: 0.282 µM [inhibitor, full curve, poor fit]
51 | c1ccc2c(c1)[nH]c1c(N3CCSCC3)ncnc12 | – | inconclusive: 22.4 µM [inhibitor, partial curve, poor fit]
52 | COC(=O)Nc1ccc2c(c1)N(C(=O)CCCl)c1ccccc1S2 | – | inconclusive: 12.6 µM [inhibitor, partial curve, poor fit]
53 | CC1CC(C)CN(C(=O)C(C)N2CCN(S(=O)(=O)c3cccs3)CC2)C1 (stereo not drawn) | – | inconclusive: 3.16 µM [inhibitor, partial curve, poor fit]
54 | O=C(Nc1ccc(F)cc1)NC1CCN(Cc2c(F)cccc2Cl)CC1 | inconclusive: -31.5% [inhibitor] | –
55 | CC(=O)Nc1ccc(Nc2nc(C)c([N+](=O)[O-])c(N(C)c3ccccc3)n2)cc1 | – | inconclusive: 31.6 µM [inhibitor, partial curve, poor fit]
56 | O=C(O)c1ccc(-n2c(=O)c3ccccc3c3ccccc3c2=O)cc1 | – | inconclusive: 35.5 µM [inhibitor, single point]
57 | Cc1cc(C)n(C(=O)CCNC(=O)c2ccccc2Br)n1 | – | inconclusive: 3.55 µM [inhibitor, partial curve, poor fit]
58 | Cc1c(C)c2c(OCC(=O)NCC(C)C)cc3c(c2oc1=O)CCC(C)(C)O3 | – | inconclusive: 17.8 µM [inhibitor, partial curve, poor fit]
